This is one part of the list. Most entries show no effect beyond the scatter of the controls.

Protein sequences, listed by entry. Tags and fused reporters are not part of them. Lines headed by an entry give the natural chain unless they say otherwise; changes in a name come on top.
UniProt Q60700: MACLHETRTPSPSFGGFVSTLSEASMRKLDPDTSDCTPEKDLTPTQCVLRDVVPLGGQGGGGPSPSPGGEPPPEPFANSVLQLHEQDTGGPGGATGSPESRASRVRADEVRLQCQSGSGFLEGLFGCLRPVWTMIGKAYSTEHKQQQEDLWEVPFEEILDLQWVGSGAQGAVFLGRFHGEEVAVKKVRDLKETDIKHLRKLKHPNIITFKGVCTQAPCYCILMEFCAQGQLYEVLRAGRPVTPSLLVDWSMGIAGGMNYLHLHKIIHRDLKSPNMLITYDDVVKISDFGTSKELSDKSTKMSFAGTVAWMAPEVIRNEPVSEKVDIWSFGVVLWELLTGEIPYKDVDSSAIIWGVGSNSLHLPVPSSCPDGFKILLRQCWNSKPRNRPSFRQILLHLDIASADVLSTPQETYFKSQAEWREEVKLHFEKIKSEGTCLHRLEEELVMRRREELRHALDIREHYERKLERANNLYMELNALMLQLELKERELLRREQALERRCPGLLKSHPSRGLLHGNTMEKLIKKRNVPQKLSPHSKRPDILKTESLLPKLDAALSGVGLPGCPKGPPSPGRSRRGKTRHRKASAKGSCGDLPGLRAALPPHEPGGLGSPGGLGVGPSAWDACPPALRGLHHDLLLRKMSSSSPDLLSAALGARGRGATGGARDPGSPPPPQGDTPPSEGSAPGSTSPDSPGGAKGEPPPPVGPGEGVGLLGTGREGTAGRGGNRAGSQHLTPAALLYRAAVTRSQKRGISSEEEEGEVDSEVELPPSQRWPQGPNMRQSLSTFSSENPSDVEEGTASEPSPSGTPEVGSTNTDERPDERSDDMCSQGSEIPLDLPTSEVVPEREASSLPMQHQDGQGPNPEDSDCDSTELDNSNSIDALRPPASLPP
UniProt Q60865: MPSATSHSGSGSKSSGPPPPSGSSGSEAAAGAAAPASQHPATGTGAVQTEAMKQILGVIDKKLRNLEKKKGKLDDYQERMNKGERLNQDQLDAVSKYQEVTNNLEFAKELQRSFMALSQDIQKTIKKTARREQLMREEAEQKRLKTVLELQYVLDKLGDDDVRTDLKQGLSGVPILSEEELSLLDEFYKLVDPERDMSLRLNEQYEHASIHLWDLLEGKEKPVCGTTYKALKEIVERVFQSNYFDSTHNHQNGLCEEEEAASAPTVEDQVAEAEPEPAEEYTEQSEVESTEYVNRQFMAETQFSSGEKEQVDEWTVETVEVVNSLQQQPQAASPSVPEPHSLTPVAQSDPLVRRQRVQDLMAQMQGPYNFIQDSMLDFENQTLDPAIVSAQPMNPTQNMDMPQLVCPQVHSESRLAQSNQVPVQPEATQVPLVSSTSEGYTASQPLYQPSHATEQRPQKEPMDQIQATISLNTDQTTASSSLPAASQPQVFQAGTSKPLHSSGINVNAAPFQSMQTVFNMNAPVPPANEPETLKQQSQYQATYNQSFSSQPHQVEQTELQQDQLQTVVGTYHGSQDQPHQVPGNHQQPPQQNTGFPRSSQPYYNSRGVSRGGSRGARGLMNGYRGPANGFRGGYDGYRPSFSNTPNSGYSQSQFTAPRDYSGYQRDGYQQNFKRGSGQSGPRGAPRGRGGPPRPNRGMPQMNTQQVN
UniProt Q60987: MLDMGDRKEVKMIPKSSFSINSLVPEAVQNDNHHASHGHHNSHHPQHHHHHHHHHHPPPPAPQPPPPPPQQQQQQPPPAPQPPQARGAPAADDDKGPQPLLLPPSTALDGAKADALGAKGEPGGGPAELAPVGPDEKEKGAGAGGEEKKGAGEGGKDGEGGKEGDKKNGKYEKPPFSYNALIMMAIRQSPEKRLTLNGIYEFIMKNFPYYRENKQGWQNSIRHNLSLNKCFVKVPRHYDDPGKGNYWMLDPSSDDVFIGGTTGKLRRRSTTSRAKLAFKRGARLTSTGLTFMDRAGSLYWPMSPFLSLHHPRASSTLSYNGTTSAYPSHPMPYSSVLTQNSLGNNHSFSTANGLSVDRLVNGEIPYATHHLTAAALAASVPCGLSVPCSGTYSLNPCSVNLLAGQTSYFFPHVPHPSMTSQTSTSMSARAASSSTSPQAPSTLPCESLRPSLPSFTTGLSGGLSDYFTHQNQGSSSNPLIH
UniProt Q60866: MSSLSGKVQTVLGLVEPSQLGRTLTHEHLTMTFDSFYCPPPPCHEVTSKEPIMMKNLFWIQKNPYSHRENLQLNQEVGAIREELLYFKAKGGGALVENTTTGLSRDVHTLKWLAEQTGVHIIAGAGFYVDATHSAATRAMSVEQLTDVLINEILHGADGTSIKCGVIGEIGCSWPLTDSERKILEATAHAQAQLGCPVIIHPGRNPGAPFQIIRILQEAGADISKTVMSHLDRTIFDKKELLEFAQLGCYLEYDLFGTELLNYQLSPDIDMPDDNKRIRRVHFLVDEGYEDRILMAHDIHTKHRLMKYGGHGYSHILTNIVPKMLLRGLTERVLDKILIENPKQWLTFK
UniProt Q60925: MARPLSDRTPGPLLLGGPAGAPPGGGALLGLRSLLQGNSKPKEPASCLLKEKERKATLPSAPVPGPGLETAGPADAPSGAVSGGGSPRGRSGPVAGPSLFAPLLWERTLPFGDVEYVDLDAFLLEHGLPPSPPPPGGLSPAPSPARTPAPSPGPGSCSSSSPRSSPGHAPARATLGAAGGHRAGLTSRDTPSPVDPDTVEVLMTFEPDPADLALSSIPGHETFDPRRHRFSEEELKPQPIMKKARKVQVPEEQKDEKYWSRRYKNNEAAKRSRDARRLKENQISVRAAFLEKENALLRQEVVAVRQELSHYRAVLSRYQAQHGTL
UniProt Q61235: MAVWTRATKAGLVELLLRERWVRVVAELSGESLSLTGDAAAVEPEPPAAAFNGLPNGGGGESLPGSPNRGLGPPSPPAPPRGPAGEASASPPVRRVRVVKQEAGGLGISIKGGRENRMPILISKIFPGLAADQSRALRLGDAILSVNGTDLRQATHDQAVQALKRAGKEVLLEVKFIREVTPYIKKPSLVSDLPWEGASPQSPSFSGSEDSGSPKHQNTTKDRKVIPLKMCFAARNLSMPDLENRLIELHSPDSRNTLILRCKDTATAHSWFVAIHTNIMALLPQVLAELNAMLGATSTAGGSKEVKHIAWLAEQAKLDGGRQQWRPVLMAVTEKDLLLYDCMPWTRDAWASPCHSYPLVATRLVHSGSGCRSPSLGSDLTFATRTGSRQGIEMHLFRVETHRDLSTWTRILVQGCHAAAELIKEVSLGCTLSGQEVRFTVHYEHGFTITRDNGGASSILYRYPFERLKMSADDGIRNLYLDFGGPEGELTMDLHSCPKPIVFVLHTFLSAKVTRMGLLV
UniProt Q5ND52: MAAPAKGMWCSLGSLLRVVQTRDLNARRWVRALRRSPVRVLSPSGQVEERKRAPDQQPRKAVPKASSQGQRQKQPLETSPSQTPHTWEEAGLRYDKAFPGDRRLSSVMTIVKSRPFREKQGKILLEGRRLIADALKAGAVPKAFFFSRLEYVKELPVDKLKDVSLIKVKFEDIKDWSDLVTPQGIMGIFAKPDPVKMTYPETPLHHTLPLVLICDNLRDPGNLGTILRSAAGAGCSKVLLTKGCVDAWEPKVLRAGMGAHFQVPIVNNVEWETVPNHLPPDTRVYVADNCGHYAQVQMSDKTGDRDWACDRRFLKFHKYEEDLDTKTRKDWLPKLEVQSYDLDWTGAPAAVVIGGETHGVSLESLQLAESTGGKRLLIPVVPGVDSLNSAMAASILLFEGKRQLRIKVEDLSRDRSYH
UniProt Q5MJS3: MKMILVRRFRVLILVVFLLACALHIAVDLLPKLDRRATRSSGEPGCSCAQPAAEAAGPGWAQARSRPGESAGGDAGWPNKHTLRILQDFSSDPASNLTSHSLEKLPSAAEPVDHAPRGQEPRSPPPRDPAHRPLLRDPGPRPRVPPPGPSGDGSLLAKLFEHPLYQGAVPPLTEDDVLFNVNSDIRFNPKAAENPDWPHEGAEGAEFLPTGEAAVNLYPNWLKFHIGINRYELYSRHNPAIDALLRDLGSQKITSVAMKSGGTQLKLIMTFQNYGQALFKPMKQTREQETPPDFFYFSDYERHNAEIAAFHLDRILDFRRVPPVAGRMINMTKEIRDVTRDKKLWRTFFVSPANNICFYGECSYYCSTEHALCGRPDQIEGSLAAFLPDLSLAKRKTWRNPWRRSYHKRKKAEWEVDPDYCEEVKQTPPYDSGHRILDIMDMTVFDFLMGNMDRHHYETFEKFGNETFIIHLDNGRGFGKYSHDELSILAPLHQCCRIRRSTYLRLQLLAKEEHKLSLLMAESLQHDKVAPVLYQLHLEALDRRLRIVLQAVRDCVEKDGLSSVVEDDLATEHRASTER
UniProt Q5SUR0: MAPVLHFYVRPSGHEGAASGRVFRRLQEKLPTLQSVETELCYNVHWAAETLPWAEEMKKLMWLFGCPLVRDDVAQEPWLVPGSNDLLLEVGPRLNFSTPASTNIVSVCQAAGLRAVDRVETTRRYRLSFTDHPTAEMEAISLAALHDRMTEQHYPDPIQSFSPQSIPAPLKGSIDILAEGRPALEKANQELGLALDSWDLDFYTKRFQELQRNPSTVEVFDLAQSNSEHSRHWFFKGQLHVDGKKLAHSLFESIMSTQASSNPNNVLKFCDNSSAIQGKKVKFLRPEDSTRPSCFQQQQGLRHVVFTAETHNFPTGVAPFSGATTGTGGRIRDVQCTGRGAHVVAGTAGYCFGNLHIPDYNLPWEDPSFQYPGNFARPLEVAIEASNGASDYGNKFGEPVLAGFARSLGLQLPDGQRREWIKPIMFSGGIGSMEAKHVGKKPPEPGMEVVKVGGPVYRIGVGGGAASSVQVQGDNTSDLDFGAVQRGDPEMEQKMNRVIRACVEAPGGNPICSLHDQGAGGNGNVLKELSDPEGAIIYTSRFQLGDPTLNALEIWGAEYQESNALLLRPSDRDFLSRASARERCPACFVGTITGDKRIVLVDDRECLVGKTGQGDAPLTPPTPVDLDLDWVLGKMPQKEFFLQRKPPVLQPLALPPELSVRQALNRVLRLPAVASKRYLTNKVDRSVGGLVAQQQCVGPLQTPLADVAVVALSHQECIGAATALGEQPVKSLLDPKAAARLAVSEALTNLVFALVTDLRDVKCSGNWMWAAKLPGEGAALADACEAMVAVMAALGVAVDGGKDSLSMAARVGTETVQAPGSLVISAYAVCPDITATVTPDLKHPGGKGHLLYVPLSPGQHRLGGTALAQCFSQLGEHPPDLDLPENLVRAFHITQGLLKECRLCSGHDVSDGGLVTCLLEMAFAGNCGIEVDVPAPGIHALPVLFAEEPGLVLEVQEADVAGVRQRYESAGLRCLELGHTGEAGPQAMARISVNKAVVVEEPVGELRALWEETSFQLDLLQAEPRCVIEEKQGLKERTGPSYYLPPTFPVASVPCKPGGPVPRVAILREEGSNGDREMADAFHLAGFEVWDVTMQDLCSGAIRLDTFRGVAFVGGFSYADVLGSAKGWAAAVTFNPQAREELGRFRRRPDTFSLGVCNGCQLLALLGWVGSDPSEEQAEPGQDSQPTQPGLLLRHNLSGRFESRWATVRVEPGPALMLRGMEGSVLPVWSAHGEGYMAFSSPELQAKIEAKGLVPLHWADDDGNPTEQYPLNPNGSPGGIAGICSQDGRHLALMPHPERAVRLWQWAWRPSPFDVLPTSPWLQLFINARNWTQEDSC
UniProt Q5U464: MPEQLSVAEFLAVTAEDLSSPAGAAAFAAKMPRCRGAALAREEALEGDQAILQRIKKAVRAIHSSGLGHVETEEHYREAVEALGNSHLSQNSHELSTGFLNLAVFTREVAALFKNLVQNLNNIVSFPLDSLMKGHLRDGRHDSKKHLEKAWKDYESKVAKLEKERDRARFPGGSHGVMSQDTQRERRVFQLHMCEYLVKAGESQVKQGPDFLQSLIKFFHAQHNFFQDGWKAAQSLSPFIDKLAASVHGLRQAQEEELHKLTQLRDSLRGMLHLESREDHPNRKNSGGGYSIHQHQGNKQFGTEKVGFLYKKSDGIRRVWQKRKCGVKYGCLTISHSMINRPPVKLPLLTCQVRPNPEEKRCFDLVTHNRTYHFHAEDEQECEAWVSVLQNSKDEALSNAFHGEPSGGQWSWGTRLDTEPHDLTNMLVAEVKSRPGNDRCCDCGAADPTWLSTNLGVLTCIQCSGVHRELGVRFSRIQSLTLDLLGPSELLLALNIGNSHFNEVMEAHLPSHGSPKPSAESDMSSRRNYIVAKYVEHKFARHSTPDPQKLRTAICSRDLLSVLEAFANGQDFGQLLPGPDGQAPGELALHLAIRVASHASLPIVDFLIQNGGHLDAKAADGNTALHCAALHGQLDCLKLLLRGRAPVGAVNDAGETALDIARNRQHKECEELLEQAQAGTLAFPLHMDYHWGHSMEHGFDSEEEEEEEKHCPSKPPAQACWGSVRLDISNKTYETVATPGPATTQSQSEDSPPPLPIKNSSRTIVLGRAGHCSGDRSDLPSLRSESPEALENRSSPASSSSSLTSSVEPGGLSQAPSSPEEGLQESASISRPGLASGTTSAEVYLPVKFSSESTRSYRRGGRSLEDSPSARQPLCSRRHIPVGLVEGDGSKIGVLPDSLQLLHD

Compound in the assay: CN[C@@H]1C[C@H]2O[C@@](C)([C@@H]1OC)n1c3ccccc3c3c4c(c5c6ccccc6n2c5c31)C(=O)NC4 [staurosporine]
Description: log2 fold change of tryptic peptide abundance, ligand vs vehicle (limited proteolysis) (log2 ratio); higher = more trypsin-susceptible (destabilized). As to conditions: ligand concentration: 20 uM; sample: mouse liver crude lysate; replicate design: treated separately.
For the target “UniProt Q60700 (peptide sequence: GATGGAR, peptide start residue: 657)”, the log2 fold change stood at 0.0265.
The result for “UniProt Q60865 (peptide sequence: SSQPYYNSR, peptide start residue: 598)” reads 0.205; that for “UniProt Q60631 (peptide sequence: HDGAFLIR, peptide start residue: 79)”, 0.226; that for “UniProt Q60987 (peptide sequence: ADALGAK, peptide start residue: 113)”, -0.238.
The result for “UniProt Q60805 (peptide sequence: SHPAHTAAPQVTSTASK, peptide start residue: 67)” reads 0.288.
“UniProt Q5IRJ6 (peptide sequence: KEAEIEYR, peptide start residue: 194)”: the log2 fold change was -0.138.
With “UniProt Q60862 (peptide sequence: TLHNLLR, peptide start residue: 270)”, the log2 fold change was -0.044.
As for “UniProt Q60866 (peptide sequence: RVHFLVDEGYEDR, peptide start residue: 280)”, the log2 fold change was -0.68.
“UniProt Q5SUA5 (peptide sequence: VSDCIPLSQR, peptide start residue: 982)”: the log2 fold change is -0.0401.
The result for “UniProt Q61194 (peptide sequence: TRNPTFNEMLVYSGYSK, peptide start residue: 1618)” reads -0.397; that for “UniProt Q5NCQ5 (peptide sequence: GLCQPASDKVQQGSR, peptide start residue: 401)”, -0.0325.
The result for “UniProt Q5NCR9 (peptide sequence: TYIEKEDD, peptide start residue: 535)” reads -0.2; that for “UniProt Q5H8C4 (peptide sequence: FFNEDGVIRPYR, peptide start residue: 3033)”, 0.208.
As for “UniProt Q60925 (peptide sequence: KVQVPEEQKDEK, peptide start residue: 246)”, the log2 fold change stood at 0.553.
Under “UniProt Q60674 (peptide sequence: NSYLCNTGGR, peptide start residue: 367)” stands 0.547; under “UniProt Q60949 (peptide sequence: ELSMGDKEAFPVSETSFK, peptide start residue: 538)”, -0.296.
Under “UniProt Q61127 (peptide sequence: KYSVIYGR, peptide start residue: 297)” stands 0.287; under “UniProt Q61235 (peptide sequence: VVKQEAGGLGISIK, peptide start residue: 98)”, -0.211; under “UniProt Q5ND52 (peptide sequence: VKFEDIK, peptide start residue: 168)”, 0.337.
The result for “UniProt Q5MJS3 (peptide sequence: HNAEIAAFHLDR, peptide start residue: 260)” reads 0.223; that for “UniProt Q61089 (peptide sequence: GSTSLPVHSASR, peptide start residue: 685)”, -0.057.
On to “UniProt Q60967 (peptide sequence: RPVLLLHPLGGWTK, peptide start residue: 446)”, for which the log2 fold change is -0.578.
Turning to “UniProt Q60902 (peptide sequence: LPLDVLGR, peptide start residue: 159)”, the log2 fold change is -0.347.
In the case of “UniProt Q5SYH2 (peptide sequence: DLHQHLR, peptide start residue: 62)”, the log2 fold change is -0.357.
The result for “UniProt Q5SUR0 (peptide sequence: GHLLYVPLSPGQHR, peptide start residue: 848)” reads -0.782; that for “UniProt Q61026 (peptide sequence: SMVNGGSWSGEPPRR, peptide start residue: 179)”, 0.562; that for “UniProt Q5U464 (peptide sequence: RHIPVGLVEGDGSK, peptide start residue: 878)”, 0.733.
The result for “UniProt Q5SSM3 (peptide sequence: QLANQTVGR, peptide start residue: 10)” reads -0.0211; that for “UniProt Q5SGK3 (peptide sequence: NMASLGGHVISR, peptide start residue: 353)”, -0.0373; that for “UniProt Q60787 (peptide sequence: STKPPLDR, peptide start residue: 238)”, -0.245.
Under “UniProt Q5XJE5 (peptide sequence: QGTGLQGQAVFK, peptide start residue: 476)” stands 0.304.

These data come from the supplement of paper PMC12819154, “High-throughput peptide-centric local stability assay extends protein–ligand identification to membrane proteins, tissues and bacteria” (Nature Structural & Molecular Biology, 2025).
